Test results reported in PMC11848572, “Expanding the Functions of KHSRP Protein: Insights into DNA G‐Quadruplex Binding”.

Legend:
[1] = biological target: T1, KHSRP130-503 (four KH domains) (Homo sapiens) (UniProt Q92945); experiment: 1D 1H NMR; conditions: recombinant protein; residues 130-503; protein details: N-terminal His-tag (pET-28a), TEV-cleaved; folded or branched DNA
T1 sequence (looked up): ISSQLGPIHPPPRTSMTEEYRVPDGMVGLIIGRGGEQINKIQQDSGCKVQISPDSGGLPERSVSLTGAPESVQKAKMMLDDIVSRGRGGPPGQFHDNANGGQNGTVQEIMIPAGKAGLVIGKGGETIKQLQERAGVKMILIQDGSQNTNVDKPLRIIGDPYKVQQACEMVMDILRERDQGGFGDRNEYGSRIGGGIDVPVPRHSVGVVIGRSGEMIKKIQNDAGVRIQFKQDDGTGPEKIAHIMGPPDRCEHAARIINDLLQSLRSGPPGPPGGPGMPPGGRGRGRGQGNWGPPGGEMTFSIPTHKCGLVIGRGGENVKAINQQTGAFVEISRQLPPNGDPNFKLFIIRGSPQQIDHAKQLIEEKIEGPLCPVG

[2] = biological target: T1, KHSRP130-503 (four KH domains) (Homo sapiens); experiment: NMR titration of complex; conditions: pyridostatin; recombinant protein; residues 130-503; protein details: N-terminal His-tag (pET-28a), TEV-cleaved; folded or branched DNA

Sequence | binding result [1] | binding result [2]
TTGGGTTAGGGTTAGGGTTAGGGA [mTel24] | binds more weakly | –
GGGCGCGGGAGGAATTGGGCGGG [Bcl-2] | binds more weakly | –
TGAGGGTGGGTAGGGTGGGTAA [c-Myc] | – | binds more weakly
CGGGCGGGCGCTAGGGAGGGT [c-Kit2] | – | binds more weakly

The comparison behind a weaker result is the experiment's own reference, which may not be listed here. Protein sequences can lack the tags named with them. For some of these results: Construct, isoform or probe ends are uncertain for at least one entry.
